Experimental data as given in the supplement of paper PMC12823440, “Inhibitors supercharge kinase turnover through native proteolytic circuits” (Nature, 2025).
Where a name gives a salt, the structure may show the parent alone. This is one part of the list. Hit calls seldom repeat between salt and free forms of one compound.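 In K562 cells expressing nanoluciferase-fused kinases, luminescence was recorded at 4 h intervals between 2 and 18 h, normalized as percent of control with DMSO at 100% and a positive control at 0%. A significant (2 sigma) signal drop marks a time point as decreased. The authors' rule for a hit is not shown and takes in more than the number of time points.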

The chains behind the UniProt entries cited, without tags or fusion partners. Where a name states a change or a piece, a line headed by the entry shows the natural chain unless it says otherwise.
UniProt Q9UM73: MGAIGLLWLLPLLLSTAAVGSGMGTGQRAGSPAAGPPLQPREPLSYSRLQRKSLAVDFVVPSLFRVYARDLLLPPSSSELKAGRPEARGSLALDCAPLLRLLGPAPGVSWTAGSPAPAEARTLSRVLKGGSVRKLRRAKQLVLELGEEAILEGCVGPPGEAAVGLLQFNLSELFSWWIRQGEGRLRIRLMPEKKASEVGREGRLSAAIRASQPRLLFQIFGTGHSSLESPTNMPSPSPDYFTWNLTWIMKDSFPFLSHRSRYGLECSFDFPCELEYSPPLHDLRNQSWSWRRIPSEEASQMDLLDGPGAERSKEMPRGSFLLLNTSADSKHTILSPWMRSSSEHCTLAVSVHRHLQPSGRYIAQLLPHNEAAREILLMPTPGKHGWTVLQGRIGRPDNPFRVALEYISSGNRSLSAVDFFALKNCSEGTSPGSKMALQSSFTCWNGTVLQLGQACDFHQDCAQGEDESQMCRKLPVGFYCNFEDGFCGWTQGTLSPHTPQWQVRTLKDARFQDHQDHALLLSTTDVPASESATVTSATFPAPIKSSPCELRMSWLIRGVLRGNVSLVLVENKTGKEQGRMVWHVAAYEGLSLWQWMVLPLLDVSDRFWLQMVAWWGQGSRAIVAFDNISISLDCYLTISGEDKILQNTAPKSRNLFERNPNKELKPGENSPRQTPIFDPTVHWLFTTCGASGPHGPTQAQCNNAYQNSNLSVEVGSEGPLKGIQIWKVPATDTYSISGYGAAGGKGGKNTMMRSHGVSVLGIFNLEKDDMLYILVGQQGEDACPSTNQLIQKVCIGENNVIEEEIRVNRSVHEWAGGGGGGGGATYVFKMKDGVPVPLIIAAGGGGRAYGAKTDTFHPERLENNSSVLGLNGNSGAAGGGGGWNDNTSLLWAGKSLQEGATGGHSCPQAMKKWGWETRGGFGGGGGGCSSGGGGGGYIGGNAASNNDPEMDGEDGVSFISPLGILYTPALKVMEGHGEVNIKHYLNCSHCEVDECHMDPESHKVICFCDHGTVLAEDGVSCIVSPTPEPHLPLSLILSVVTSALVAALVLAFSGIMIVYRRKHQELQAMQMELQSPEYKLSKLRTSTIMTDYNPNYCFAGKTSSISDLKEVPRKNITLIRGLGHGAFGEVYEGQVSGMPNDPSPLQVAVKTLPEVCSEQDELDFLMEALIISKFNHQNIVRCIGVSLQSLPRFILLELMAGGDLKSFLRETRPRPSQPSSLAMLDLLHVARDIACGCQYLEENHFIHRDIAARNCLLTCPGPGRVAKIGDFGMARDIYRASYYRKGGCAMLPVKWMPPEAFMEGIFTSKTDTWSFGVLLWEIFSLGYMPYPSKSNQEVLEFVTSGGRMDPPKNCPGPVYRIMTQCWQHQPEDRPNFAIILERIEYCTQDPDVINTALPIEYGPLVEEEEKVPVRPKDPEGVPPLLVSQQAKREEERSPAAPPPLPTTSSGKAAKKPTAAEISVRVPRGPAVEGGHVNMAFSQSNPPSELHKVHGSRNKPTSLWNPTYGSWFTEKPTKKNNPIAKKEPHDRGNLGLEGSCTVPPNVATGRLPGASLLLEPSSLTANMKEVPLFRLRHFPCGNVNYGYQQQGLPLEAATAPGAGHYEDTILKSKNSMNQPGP

target: ALK (UniProt Q9UM73); experiment: kinase-Nluc reporter destabilization hit call (1 = scored as downregulated) (binary); higher = compound decreases kinase abundance; conditions: K562; 2-18 h

kinase-Nluc reporter destabilization hit call, inactive:
O=c1cc(O)cc(/C=C/c2ccc(O)c(O)c2)o1 [Hispidin] (10 µM) 0
CC1CN(C(=O)Nc2ccc(Cl)c(Cl)c2)C(=Nc2ccc(F)cc2)S1 (stereo not given) (10 µM) 0
COc1cc2c[n+](C)c3c4cc5c(cc4ccc3c2cc1OC)OCO5 [Nitidine (chloride)] (2 µM) 0
Cc1c(CN2CCN(S(C)(=O)=O)CC2)sc2c(N3CCOCC3)nc(-c3cnc(N)nc3)nc12 (2.5 µM) 0
Cc1cc([C@H](C)Nc2ccccc2)c2oc(N3CCOCC3)cc(=O)c2c1 (10 µM) 0
O=C(CNC(=O)c1ccc(-c2ccccc2)cc1)NC1CCCc2ccccc21 (stereo not given) [TAO Kinase inhibitor 1] (10 µM) 0
Cn1cc(-c2ccc(CNc3cc(-c4cnc5cc(OCCCN6CCCC6)ccn45)ncn3)cc2)cn1 (10 µM) 0
Cc1ccc(S(=O)(=O)Nc2ccccc2C=Nc2ccccc2NS(=O)(=O)c2ccc(C)cc2)cc1 (10 µM) 0
O=C(/C=C/c1ccc(O)c(O)c1)c1ccc(O[C@@H]2O[C@H](CO)[C@@H](O)[C@H](O)[C@H]2O)c(O)c1O [Marein] (10 µM) 0
O=C(NCCCNc1nc(Nc2cccc(NC(=O)N3CCCC3)c2)ncc1I)c1cccs1 (2.5 µM) 0
CN(CCNc1ccc2ncc(-c3ccc(C(N)=O)cc3)n2n1)C(=O)OC(C)(C)C (10 µM) 0
C=C(C)C(=O)Nc1cccc(-c2ncnc3[nH]cc(C(=O)OCC)c23)c1 (10 µM) 0
COc1ccc(C(=C2C(=O)Nc3ccccc32)c2ccc(OC)cc2)cc1 (10 µM) 0
CN1CCN(c2ccc(C(=O)Nc3cc(-c4cccc(NS(=O)(=O)c5ccccc5)c4)[nH]n3)cc2)CC1 [BPR1J-097 Hydrochloride] (2.5 µM) 0
C=CC(=O)Nc1cc2c(Nc3ccc(OCc4ccccn4)c(Cl)c3)ncnc2cc1OCCN1CCOCC1 (10 µM) 0
Cc1c(NC(=O)OC[C@@H]2COCCN2)cn2ncnc(Nc3ccc4c(cnn4Cc4cccc(F)c4)c3)c12 (10 µM) 0
CNc1nc(Nc2cnn(C3CCN(C4COC4)CC3F)c2Cl)ncc1C(F)(F)F (stereo not given) (10 µM) 0
O=C(NCCO)c1ccc2c(c1)nc(Nc1cccc(Cl)c1)c1ccncc12 [CK2 inhibitor 2] (10 µM) 0
N#CC(c1ccnc(NCCc2cccnc2)n1)c1nc2ccccc2s1 (stereo not given) (10 µM) 0
CCN(CC)S(=O)(=O)c1ccc(OC)c(N2CCN(C(=O)c3ccc(F)cc3C(F)(F)F)CC2)c1 (10 µM) 0
CO[C@H]1C[C@@H]2CC[C@@H](C)[C@@](O)(O2)C(=O)C(=O)N2CCCC[C@H]2C(=O)O[C@H]([C@H](C)C[C@@H]2CC[C@@H](O)[C@H](OC)C2)CC(=O)[C@H](C)/C=C(\C)[C@@H](O)[C@@H](OC)C(=O)[C@H](C)C[C@H](C)/C=C/C=C/C=C/1C [Rapamycin] (10 µM) 0
CN(C)CCN(Cc1ccc(Cl)cc1)c1ccccn1 [Chloropyramine hydrochloride] (10 µM) 0
O=C(Nc1ccc(F)cc1F)[C@H](NC(=S)Nc1cc(C(F)(F)F)cc(C(F)(F)F)c1)c1ccccc1 (2.5 µM) 0
Cc1ccc(Nc2cc(-c3cccc(N4C(=O)c5ccccc5C4=O)c3)ncn2)cc1NS(C)(=O)=O (10 µM) 0
CC(C)(C)c1ccc(S(=O)(=O)Nc2ccc(-n3ccnc3)cc2)cc1 (10 µM) 0
CCc1cc(O)c(F)cc1-c1ccc2c(-c3nc4c([nH]3)CN(C3CCN(C)CC3)CC4)n[nH]c2c1 [JAK-IN-5 (hydrochloride)] (2 µM) 0
CC1=C2C(=O)O[C@@H](c3ccoc3)[C@]2(C)CCC1 [Fraxinellone] (10 µM) 0
COc1cc(C(N)=O)nc(-c2cccc(C#C[C@]3(O)CCN(C)C3=O)c2)c1 (10 µM) 0
COc1ncc(-c2nc(N3CCOCC3)nc3c(CN4CCC(C(C)(C)O)CC4)cc(F)cc23)cc1NS(C)(=O)=O [Linperlisib] (10 µM) 0
Fc1ccc(-c2nc(-c3ccccc3F)[nH]c2-c2ccncc2)cc1 (2.5 µM) 0

Two compounds drawn at random from the list so far, as already listed:
kinase-Nluc reporter destabilization hit call, inactive:
Cc1cc([C@H](C)Nc2ccccc2)c2oc(N3CCOCC3)cc(=O)c2c1 (10 µM) 0
O=C(Nc1ccc(F)cc1F)[C@H](NC(=S)Nc1cc(C(F)(F)F)cc(C(F)(F)F)c1)c1ccccc1 (2.5 µM) 0
